Not every detail of the peptide structures is certain; ends, links or a residue may be inferred. Residues, ends and D or L forms follow the SMILES beside them. *: point of attachment. Doxorubicin(3'-N) = COc1cccc2c1C(=O)c1c(O)c3c(c(O)c1C2=O)C[C@@](O)(C(=O)CO)C[C@@H]3O[C@H]1C[C@H](N*)[C@H](O)[C@H](C)O1
Tests used:
[1] = Self-assembly into nanoparticles (TEM; fluorescence in PBS/DMSO co-solvents); assay type: physicochemical
cathepsin B = cathepsin B (Homo sapiens, UniProt P07858); experiment: In vitro cleavage by cathepsin B, HPLC; assay type: biochemical; conditions: cathepsin B 10 μg/ml, conjugate 100 μM, 37 °C, up to 9 h
cathepsin D = cathepsin D (Homo sapiens, UniProt P07339); experiment: In vitro incubation with cathepsin D, HPLC; assay type: biochemical; conditions: 10 μg/ml enzyme, 37° C., 9 h
cathepsin E = biological target: T1, cathepsin E (Homo sapiens, UniProt P14091); experiment: In vitro incubation with cathepsin E, HPLC; assay type: biochemical; conditions: 10 μg/ml enzyme, 37° C., 9 h
T1 sequence (P14091 54-396): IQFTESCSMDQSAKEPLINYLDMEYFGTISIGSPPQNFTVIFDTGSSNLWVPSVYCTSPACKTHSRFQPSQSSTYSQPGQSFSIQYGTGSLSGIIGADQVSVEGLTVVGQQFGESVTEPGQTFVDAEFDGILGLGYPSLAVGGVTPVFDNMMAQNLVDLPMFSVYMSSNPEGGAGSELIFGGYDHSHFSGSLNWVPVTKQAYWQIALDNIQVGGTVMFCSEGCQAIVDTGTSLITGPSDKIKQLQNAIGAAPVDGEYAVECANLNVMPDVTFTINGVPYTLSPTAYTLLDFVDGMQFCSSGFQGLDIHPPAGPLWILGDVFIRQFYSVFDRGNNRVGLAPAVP

Chains of the proteins cited; added tags and fusions are not shown. Residues count along the entry.
UniProt P07339, 65-412, species assumed: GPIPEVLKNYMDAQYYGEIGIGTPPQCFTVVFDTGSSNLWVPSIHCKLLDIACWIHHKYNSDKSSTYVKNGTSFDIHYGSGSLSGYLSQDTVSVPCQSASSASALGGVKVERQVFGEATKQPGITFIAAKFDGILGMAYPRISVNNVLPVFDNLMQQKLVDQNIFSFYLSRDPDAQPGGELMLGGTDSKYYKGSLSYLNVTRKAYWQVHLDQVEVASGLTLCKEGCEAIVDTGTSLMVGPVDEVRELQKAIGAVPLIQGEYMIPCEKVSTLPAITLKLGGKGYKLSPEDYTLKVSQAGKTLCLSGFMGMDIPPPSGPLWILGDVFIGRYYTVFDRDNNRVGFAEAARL
UniProt P07711, 114-333, species assumed: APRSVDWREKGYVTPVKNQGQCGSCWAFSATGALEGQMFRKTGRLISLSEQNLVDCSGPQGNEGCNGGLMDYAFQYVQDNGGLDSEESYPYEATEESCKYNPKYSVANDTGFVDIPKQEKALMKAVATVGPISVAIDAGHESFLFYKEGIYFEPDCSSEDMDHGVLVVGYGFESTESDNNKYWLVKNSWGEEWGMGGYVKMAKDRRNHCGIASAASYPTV

cathepsin L = cathepsin L (Homo sapiens, UniProt P07711); experiment: In vitro incubation with cathepsin L, HPLC; assay type: biochemical; conditions: 10 μg/ml enzyme, 37° C., 9 h
caspase-3 = biological target: T2, caspase-3 (Homo sapiens, UniProt P42574); experiment: In vitro incubation with caspase-3, HPLC; assay type: biochemical; conditions: 37° C., 9 h
T2 sequence (P42574 29-175 limits assumed): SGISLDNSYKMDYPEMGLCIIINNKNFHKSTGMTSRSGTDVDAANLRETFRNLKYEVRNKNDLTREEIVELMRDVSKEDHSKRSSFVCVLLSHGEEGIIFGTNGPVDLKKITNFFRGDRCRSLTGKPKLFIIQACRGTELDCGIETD
T2 sequence (P42574 176-277 limits assumed): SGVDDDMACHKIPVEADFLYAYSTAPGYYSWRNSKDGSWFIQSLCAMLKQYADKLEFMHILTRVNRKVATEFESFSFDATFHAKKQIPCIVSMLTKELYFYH

[2] = tested on: HT29 human colon cancer cells; experiment: Intracellular uptake, confocal microscopy; assay type: cell-based; conditions: HT29, 10 μM
[3] = tested on: MDA-MB231 human breast cancer cells; experiment: Intracellular uptake, confocal microscopy; assay type: cell-based; conditions: MDA-MB231, 10 μM
[4] = tested on: MCF7 human breast cancer cells; experiment: Intracellular uptake, confocal microscopy; assay type: cell-based; conditions: MCF7, 10 μM
[5] = tested on: A549 human lung cancer cells; experiment: Intracellular uptake, confocal microscopy; assay type: cell-based; conditions: A549, 10 μM
[6] = tested on: H9C2 Rattus cardiac cells; experiment: Intracellular uptake, confocal microscopy; assay type: cell-based; conditions: H9C2 normal cells, 10 μM
[7] = tested on: human dermal fibroblasts (HDF); experiment: Intracellular uptake, confocal microscopy; assay type: cell-based; conditions: HDF normal cells, 10 μM
HT-29 cells = experiment: In vitro cell viability (CCK); assay type: cell-based, human; conditions: HT29 tumor cells, 48 h
Method: First, HT-29 cells were plated in a 96-well plate at a density of 1×10^4 cells/well. […] Then, […] of CCK solution was added to each well. After further culture for 30 min, the absorbance of each 96-well plate at 450 nm was analyzed using a microplate reader (VERSAmax™, Molecular Devices Corp., Sunnyvale, Calif.). For comparison, the cell viabilities (%) of H9C2 cells (normal cells) were measured in the same manner as described above.

[8] = tested on: HT-29 human-derived colorectal cancer cells; experiment: Doxorubicin uptake after cathepsin B siRNA pretreatment, confocal microscopy; assay type: cell-based; conditions: HT-29 pretreated with lipofectamine-cathepsin B siRNA conjugate, then 5 μM conjugate 24 h
HT29 tumor = experiment: Direct injection into tumor tissues of HT-29 tumor animal model with or without cathepsin B siRNA; assay type: in vivo, athymic nude mice; conditions: intratumoral 4 mg/kg, tumor treated with cathepsin B siRNA

What does the source list for `COc1cccc2c1C(=O)c1c(O)c3c(c(O)c1C2=O)C[C@@](O)(C(=O)CO)C[C@@H]3O[C@H]1C[C@H](NC(=O)CNC(=O)[C@H](CCCNC(=N)N)NC(=O)[C@H](CCCNC(=N)N)NC(=O)[C@H](Cc2ccccc2)NC(C)=O)[C@H](O)[C@H](C)O1` [FRRG-DOX] (Ac-FRRG-{Doxorubicin(3'-N)})?
self-assembled nanoparticle structure in co-solvents of PBS and DMSO ([1]; different PBS:DMSO ratios, fluorescence, FIG. 1D): structure collapsed when an excess of DMSO was used; formation of self-assembled nanoparticles ([1]; dissolved in physiological saline, TEM, FIG. 1B): form self-assembled nanoparticles; cleavage by cathepsin B (cathepsin B): successfully cleaved by cathepsin B; degradation by cathepsin D (cathepsin D): not degraded; degradation by cathepsin E (cathepsin E): not degraded; degradation by cathepsin L (cathepsin L): not degraded; degradation by caspase-3 (caspase-3): not degraded; doxorubicin accumulation in cells / nuclei [2]: accumulated in the tumor cell nuclei; doxorubicin accumulation in cells [3]: accumulated; doxorubicin accumulation in cells [4]: accumulated; doxorubicin accumulation in cells [5]: accumulated; doxorubicin accumulation in cells / nuclei [6]: not accumulated in the normal cell nuclei; doxorubicin accumulation in cells [7]: not accumulated; cell viability compared with group treated with doxorubicin alone (Free DOX) (HT-29 cells): no substantial difference in cell viability; amount of doxorubicin absorbed into the cell nuclei [8]: reduced; anticancer effect on tumor with cathepsin B inhibitor (HT29 tumor): no anticancer effect was observed visually
